The test system of the test is re-uptake of ^3 H-dopamine. The experiment in a line: Re-uptake of 3H-dopamine in vitro (synaptosomes, P2 fraction of whole brain). Type of test: biochemical, Std: Wistar strain male rat. To be noted: Experiment II, rat brain synaptosomes, 37° C., 20 minutes. The method, then:
Effect of the test samples on the re-uptake of ^3 H-dopamine in vitro
P2 fraction was prepared from the whole brain of Std: Wistar strain male rat. […] The obtained mixture was incubated at 37° C. for 20 minutes and then subjected to the suction filtration with Whatman GF/B filter paper.
The obtained filter paper was put in a vial containing 10 ml of toluene type scintillator and its radioactivity was measured by means of liquid scintillation counter. The amount of the specific re-uptake of ^3 H-dopamine was obtained by subtracting the amount of re-uptake at 0° C. as blank.

As usually defined, the IC50 is the midpoint of a concentration-inhibition curve. A lower IC50 goes with inhibition by little substance. In turn, `CNCCCC12CCC(c3ccccc31)c1ccccc12` [Maprotiline, maprotiline] came in with an IC50 of 13 µM.

These data come from US4939175A, “Use of N,N-dimethyl-1-[1-(4-chlorophenyl)cyclobutyl]-3-methylbutylamine” (priority 1988, dated 1990).
